The campaign covered roughly 1,200 compounds. About 140 (12%) were called active.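 Rule for the calls: active = fitted curve falls past -35% activity change at a dose under twice the top valid dose, in every replicate test; inconclusive = replicate tests disagree on the call; inactive = the rest, including activity in the opposite direction.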 Most of the strongest results are missing from this list.
Test: restoration of mutant CFTR halide transport – FRT cells, YFP quenching, cherry-pick, dose response (AID 743402);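 note: compounds act as correctors raising surface CFTR-F508del before acute activation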
Details: FRT CFTR-F508del YFP iodide quenching, 24 h, channel opened with forskolin and a potentiator; at 26 µM (top of the series) unless noted

Activity change, negative = more quenching (active), inactive:
O=C(CSc1nc2nn(-c3ccccc3)c(=O)c-2c2n1CCCCC2)Nc1ccc(OC(F)F)cc1 16%
CCN(CC)CCCNc1nc2ccccc2c2[nH]c3ccc(OC)cc3c12 -10%
O=C(CN1CCN(S(=O)(=O)c2ccccc2)CC1)Nc1ccccc1Cl 12.2%
COc1ccc(Nc2nc(-c3sc(C)nc3C)cs2)c(OC)c1 -10%
O=c1c2ccccc2oc2cc(-c3ccc4[nH]ccc4c3)ccc12 -16.7%
C[C@H](CO)N1C[C@H](C)[C@H](CN(C)C(=O)NC2CCCCC2)Oc2cc(C#Cc3cccc(F)c3)ccc2S1(=O)=O 10.3%
CNC(=O)CC1C(=O)N(c2ccc(F)cc2)C(=S)N1NC(=O)c1ccc(Cl)cc1 (stereo not drawn) 7.96%
COc1cc(/C=N/NC(=O)c2cc(-c3c(C)nn(-c4ccccc4)c3C)n[nH]2)ccc1O 20%
O=C(NC(=S)Nc1ccc(-c2ccccc2)cc1)c1ccccc1 0%
Cc1ccc(NC(=O)Cc2nc(-c3c[nH]c(C(=O)N4CCCC4)c3)cs2)c(C)c1 6.67%
COc1ccc(CC(=O)Nc2nccs2)cc1S(=O)(=O)N1CCOCC1 9.58%
Cc1ccc(S(=O)(=O)N2CCCCC2CCNC(=O)C(=O)NCc2ccccc2)cc1 (stereo not drawn) 27%
Cc1ccc(S(=O)(=O)N2C[C@H]3[C@H]4C(=O)N(C)C(=O)[C@H]4CC(=O)[C@H]3[C@@H]2c2ccccc2F)cc1 6.67%
NS(=O)(=O)c1cc(Cl)c(Cl)c(S(N)(=O)=O)c1 0%
Cc1ccc(S(=O)(=O)N(C)C[C@@H]2OCCCC[C@@H](C)Oc3ccc(NS(=O)(=O)c4ccc(Cl)cc4)cc3C(=O)N([C@@H](C)CO)C[C@@H]2C)cc1 10.7%
CC(=O)OC1CCC2(C)C(=CCC3C2CCC2(C)C3CC3ON=C(C)C32)C1 (stereo not drawn) 13.3%
CCOc1ccc(NC(=O)CN(c2ccc([N+](=O)[O-])cc2)S(=O)(=O)c2ccccc2)cc1 20%
N#C/C(=C(/O)c1ccc(Br)s1)c1nc2ccccc2[nH]1 12.5%
COc1ccc(OC)c2[nH]c(C(=O)N/N=C/c3ccccc3O)cc12 3.12%
Cc1ccccc1OCC(=O)OCC(=O)NCCc1ccccc1 0%
CCOC(=O)c1c(C)[nH]c(C(=O)N/N=C/c2ccc(OC)c(OC)c2)c1C 20%
Cc1ccc(-c2ccc3c(c2)O[C@H](CN(C)C(=O)Nc2ccc(C(F)(F)F)cc2)[C@@H](C)CN([C@@H](C)CO)S3(=O)=O)cc1 3.12%
CN(Cc1ccccc1)S(=O)(=O)c1ccc(NC(=S)NC(=O)C2CCCC2)cc1 -3.33%
CC(=O)c1c(C)[nH]c(C(=O)OCc2nnc(-c3ccc([N+](=O)[O-])cc3)o2)c1C 10%
CCC(=O)c1ccc(OCC(=O)OCC(=O)N2CCc3ccccc3C2)cc1 14.3%
CN(C[C@@H]1N[C@H](CO)[C@H]1c1ccccc1)C(=O)c1ccccn1 10.3%
O=C(Nc1nc(-c2ccccn2)cs1)c1ccc(F)c(S(=O)(=O)N2CCOCC2)c1 8.28%
CCn1c(SC(C)C(=O)NCC2CCCO2)nc2ccccc21 (stereo not drawn) 3.33%
COc1ccc([C@H]2CC(=O)C=C(c3c(OC)cccc3OC)C2)cc1 0%
CC1CCN(C(=O)c2ccc(S(=O)(=O)N3CCCC3)cc2)CC1 9.79%
CCOc1cc(/C=N/NC(=O)N/N=C/c2ccc(O)c(OCC)c2)ccc1O -6.46%
Nc1ccc(S(=O)(=O)Nc2cnc3ccccc3n2)cc1 0%
Cn1nnnc1N=N/C(=N/Nc1ccccc1)c1ccccc1 3.33%
Cc1ccc(OCC(=O)Nc2ccc(CN3CCCCC3)cc2)c(C)c1 18.4%
CCCCNc1cc(C(=O)O)cc(S(N)(=O)=O)c1Oc1ccccc1 -32.1%
CC(C)(C)C(=O)OCc1nc(-c2ccc(O)c(O)c2)cs1 -6.67%
COc1cccc(Sc2ccccc2/C=N/NC(N)=O)c1 6.67%
CC(=O)Nc1cccc(-c2ccnc3c2CC(C)(C(=O)Nc2ccc4c(c2)OCO4)O3)c1 (stereo not drawn) 16.7%
CN1C(=O)c2cc(NC(=O)c3ccc(Cl)cc3)ccc2OC[C@@H]2O[C@H](CC(=O)NCc3cccc(F)c3)CC[C@H]21 27.6%
CC(C)C[C@@H](COCc1ccc(C(F)(F)F)cc1)N1CCN(C(=O)c2ccc(C(F)(F)F)cc2)CCC1=O 12.7%
Cc1noc(C)c1C(=O)NCC1COc2ccccc2O1 (stereo not drawn) 13.3%
CCN(CC)C(=S)SSC(=S)N(CC)CC 6.25%
COc1ccc(C(=O)NCC(c2ccco2)N2CCc3ccccc32)cc1 (stereo not drawn) 3.12%
Cc1cc(C(=O)N2CC=C(c3ccccc3)CC2)c2ccccc2n1 -18.7%
COc1ccc([C@H]2C[C@H](O)[C@@H](n3cc(-c4ccc(F)cc4)nn3)CN2Cc2cccs2)cc1 0%
Nc1c2c(nc3ccccc13)CCCC2 6.25%
O=C(c1ccccc1F)N1CC[C@@H]2[C@H](CO)Nc3ccc(Br)cc3[C@@H]21 9.58%
NC(=S)NN=Cc1nccc2c(N)cccc12 -3.12%
Cc1ccc(S(=O)(=O)Nc2ccc3c(c2)C(=O)N([C@@H](C)CO)C[C@H](C)[C@H](CN(C)S(=O)(=O)c2ccc(C)cc2)OCCCC[C@@H](C)O3)cc1 -3.12% [at 23.5 µM]
CCC1(C)Cc2ccccc2-c2nc[nH]c(=O)c21 (stereo not drawn) -7.69%
COc1ccc2[nH]c(C(=O)N/N=C/c3ccc(OC)c(O)c3)cc2c1 0%
C[C@@H]1CN([C@H](C)CO)C(=O)c2cc(NS(=O)(=O)c3ccc(Cl)cc3)ccc2O[C@@H]1CN(C)Cc1ccc(-c2ccccc2)cc1 20%
O=C(c1[nH]ncc1-c1ccc(Cl)cc1)C1CO1 (stereo not drawn) 22.5%

Structures shown so far with a nitro group on carbon (2):
Activity change, negative = more quenching (active), inactive:
CCOc1ccc(NC(=O)CN(c2ccc([N+](=O)[O-])cc2)S(=O)(=O)c2ccccc2)cc1 20%
CC(=O)c1c(C)[nH]c(C(=O)OCc2nnc(-c3ccc([N+](=O)[O-])cc3)o2)c1C 10%
